Measurements as given in patent publication EP1948196B1, “USE OF TETRAORGANOSILICON COMPOUNDS” (Salama, Zoser B., priority 2005, dated 2007).
Part of at least one peptide drawing is inferred or uncertain, most often the ends. Some entries repeat one wording, which the source may state once for all of them. Numbered stars: 1 amine (or outer) side, 2 acyl side, 3 side chain; on linkers, the order of the positions; unused ones are H or OH. Bridge positions count the residues as written; N and C are the ends. Peptide text beside a SMILES is read from it. I, II: the chains in the order shown. OSi(nPr)2O = CCC[Si](CCC)(O[*:1])O[*:2]; OSiEt2O = CC[Si](CC)(O[*:1])O[*:2]; X1 = C[Si](C)(O[*:1])O[*:2]

Experiments:
Lymphome = experiment: Effect on lymphomas
Angiosarkome = experiment: Effect on angiosarcomas
Nephroblastome = experiment: Effect on nephroblastomas
Hepatobfastome = experiment: Effect on hepatoblastomas
Herpes-Viren = experiment: Antiviral effect; details: in particular as vesicles holding antisense constructs
Adenokarzinome = experiment: Effect on adenocarcinomas
Influenza-Viren = experiment: Antiviral effect; details: in particular as vesicles holding antisense constructs
Plattenepithelkarzinome = experiment: Effect on squamous cell carcinomas

## CC[Si](CC)(OC(=O)[C@H](Cc1ccccc1)NC(=O)[C@H](Cc1ccccc1)NC(=O)[C@H](Cc1ccccc1)NC(=O)[C@H](Cc1ccccc1)NC(=O)[C@@H](N)Cc1ccccc1)OC(=O)[C@H](Cc1ccccc1)NC(=O)[C@H](Cc1ccccc1)NC(=O)[C@H](Cc1ccccc1)NC(=O)[C@H](Cc1ccccc1)NC(=O)[C@@H](N)Cc1ccccc1 [Diethyl bis(pentaphenylalanyl)silylester] (I: H-FFFFF / II: H-FFFFF; linker I:C-II:C via OSiEt2O)
Lymphome
  Wirkung auf Lymphome: zeigen eine Wirkung

## CC[Si](CC)(OC(=O)CNC(=O)CNC(=O)CNC(=O)CNC(=O)CN)OC(=O)CNC(=O)CNC(=O)CNC(=O)CNC(=O)CN [Diethyl bis(pentaglycyl)silylester]
Angiosarkome
  Wirkung gegen Angiosarkome: zeigen eine Wirkung

## CCC[Si](CCC)(OC(=O)CNC(=O)CNC(=O)CN)OC(=O)CNC(=O)CNC(=O)CN [Dipropyl bis(triglycyl)silylester]
Nephroblastome
  Wirkung auf Nephroblastome: zeigen eine Wirkung
Hepatobfastome
  Wirkung auf Hepatobfastome: zeigen eine Wirkung

## CCC[Si](CCC)(OC(=O)CNC(=O)CNC(=O)CNC(=O)CNC(=O)CN)OC(=O)CNC(=O)CNC(=O)CNC(=O)CNC(=O)CN [Dipropyl bis(pentaglycyl)silylester]
Nephroblastome
  Wirkung auf Nephroblastome: zeigen eine Wirkung
Hepatobfastome
  Wirkung auf Hepatobfastome: zeigen eine Wirkung

## C[Si](C)(OC(=O)[C@H](Cc1ccccc1)NC(=O)[C@H](Cc1ccccc1)NC(=O)[C@H](Cc1ccccc1)NC(=O)[C@H](Cc1ccccc1)NC(=O)[C@H](Cc1ccccc1)NC(=O)[C@H](Cc1ccccc1)NC(=O)[C@H](Cc1ccccc1)NC(=O)[C@H](Cc1ccccc1)NC(=O)[C@H](Cc1ccccc1)NC(=O)[C@@H](N)Cc1ccccc1)OC(=O)[C@H](Cc1ccccc1)NC(=O)[C@H](Cc1ccccc1)NC(=O)[C@H](Cc1ccccc1)NC(=O)[C@H](Cc1ccccc1)NC(=O)[C@H](Cc1ccccc1)NC(=O)[C@H](Cc1ccccc1)NC(=O)[C@H](Cc1ccccc1)NC(=O)[C@H](Cc1ccccc1)NC(=O)[C@H](Cc1ccccc1)NC(=O)[C@@H](N)Cc1ccccc1 [Dimethyl bis(decaphenylalanyl)silylester] (I: H-FFFFFFFFFF / II: H-FFFFFFFFFF; linker I:C-II:C via X1)
Lymphome
  Wirkung auf Lymphome: zeigen eine Wirkung

## CCC[Si](CCC)(OC(=O)[C@@H](NC(=O)[C@@H](NC(=O)[C@@H](NC(=O)[C@@H](NC(=O)[C@@H](N)C(C)C)C(C)C)C(C)C)C(C)C)C(C)C)OC(=O)[C@@H](NC(=O)[C@@H](NC(=O)[C@@H](NC(=O)[C@@H](NC(=O)[C@@H](N)C(C)C)C(C)C)C(C)C)C(C)C)C(C)C [Dipropyl bis(pentavalyl)silylester] (I: H-VVVVV / II: H-VVVVV; linker I:C-II:C via OSi(nPr)2O)
Herpes-Viren
  Wirkung gegen Herpes-Viren: zeigen eine Wirkung
Adenokarzinome
  Wirkung auf Adenokarzinome: zeigen eine Wirkung

## CC(C)[C@H](N)C(=O)N[C@H](C(=O)N[C@H](C(=O)O[Si](OC(=O)[C@@H](NC(=O)[C@@H](NC(=O)[C@@H](N)C(C)C)C(C)C)C(C)C)(c1ccccc1)c1ccccc1)C(C)C)C(C)C [Diphenyl bis(trivalyl)silylester]
Angiosarkome
  Wirkung gegen Angiosarkome: zeigen eine Wirkung

## CC[Si](CC)(OC(=O)[C@@H](NC(=O)[C@@H](NC(=O)[C@@H](NC(=O)[C@@H](NC(=O)[C@@H](N)C(C)C)C(C)C)C(C)C)C(C)C)C(C)C)OC(=O)[C@@H](NC(=O)[C@@H](NC(=O)[C@@H](NC(=O)[C@@H](NC(=O)[C@@H](N)C(C)C)C(C)C)C(C)C)C(C)C)C(C)C [Diethyl bis(pentavalyl)silylester] (I: H-VVVVV / II: H-VVVVV; linker I:C-II:C via OSiEt2O)
Seminome
  Wirkung auf Seminome: zeigen eine Wirkung

## CC[Si](CC)(OC(=O)[C@@H](NC(=O)[C@@H](NC(=O)[C@@H](NC(=O)[C@@H](NC(=O)[C@@H](NC(=O)[C@@H](NC(=O)[C@@H](NC(=O)[C@@H](N)C(C)C)C(C)C)C(C)C)C(C)C)C(C)C)C(C)C)C(C)C)C(C)C)OC(=O)[C@@H](NC(=O)[C@@H](NC(=O)[C@@H](NC(=O)[C@@H](NC(=O)[C@@H](NC(=O)[C@@H](NC(=O)[C@@H](NC(=O)[C@@H](N)C(C)C)C(C)C)C(C)C)C(C)C)C(C)C)C(C)C)C(C)C)C(C)C [Diethyl bis(octavalyl)silylester] (I: H-VVVVVVVV / II: H-VVVVVVVV; linker I:C-II:C via OSiEt2O)
Herpes-Viren
  Wirkung gegen Herpes-Viren: zeigen eine Wirkung
Adenokarzinome
  Wirkung auf Adenokarzinome: zeigen eine Wirkung

## CCC[Si](CCC)(OC(=O)CNC(=O)CNC(=O)CNC(=O)CN)OC(=O)CNC(=O)CNC(=O)CNC(=O)CN [Dipropyl bis(tetraglycyl)silylester] (I: H-GGGG / II: H-GGGG; linker I:C-II:C via OSi(nPr)2O)
Nephroblastome
  Wirkung auf Nephroblastome: zeigen eine Wirkung
Hepatobfastome
  Wirkung auf Hepatobfastome: zeigen eine Wirkung

## CC(C)[C@H](N)C(=O)N[C@H](C(=O)N[C@H](C(=O)N[C@H](C(=O)N[C@H](C(=O)N[C@H](C(=O)N[C@H](C(=O)N[C@H](C(=O)N[C@H](C(=O)O[Si](C)(C)OC(=O)[C@@H](NC(=O)[C@@H](NC(=O)[C@@H](NC(=O)[C@@H](NC(=O)[C@@H](NC(=O)[C@@H](NC(=O)[C@@H](NC(=O)[C@@H](NC(=O)[C@@H](N)C(C)C)C(C)C)C(C)C)C(C)C)C(C)C)C(C)C)C(C)C)C(C)C)C(C)C)C(C)C)C(C)C)C(C)C)C(C)C)C(C)C)C(C)C)C(C)C)C(C)C [Dimethyl bis(nonavalyl)silylester] (I: H-VVVVVVVVV / II: H-VVVVVVVVV; linker I:C-II:C via X1)
Seminome
  Wirkung auf Seminome: zeigen eine Wirkung

## CC[Si](CC)(OC(=O)[C@@H](NC(=O)[C@@H](NC(=O)[C@@H](NC(=O)[C@@H](NC(=O)[C@@H](NC(=O)[C@@H](N)C(C)C)C(C)C)C(C)C)C(C)C)C(C)C)C(C)C)OC(=O)[C@@H](NC(=O)[C@@H](NC(=O)[C@@H](NC(=O)[C@@H](NC(=O)[C@@H](NC(=O)[C@@H](N)C(C)C)C(C)C)C(C)C)C(C)C)C(C)C)C(C)C [Diethyl bis(hexavalyl)silylester] (I: H-VVVVVV / II: H-VVVVVV; linker I:C-II:C via OSiEt2O)
Seminome
  Wirkung auf Seminome: zeigen eine Wirkung

## C[Si](C)(OC(=O)[C@H](Cc1ccccc1)NC(=O)[C@H](Cc1ccccc1)NC(=O)[C@H](Cc1ccccc1)NC(=O)[C@H](Cc1ccccc1)NC(=O)[C@H](Cc1ccccc1)NC(=O)[C@H](Cc1ccccc1)NC(=O)[C@H](Cc1ccccc1)NC(=O)[C@H](Cc1ccccc1)NC(=O)[C@@H](N)Cc1ccccc1)OC(=O)[C@H](Cc1ccccc1)NC(=O)[C@H](Cc1ccccc1)NC(=O)[C@H](Cc1ccccc1)NC(=O)[C@H](Cc1ccccc1)NC(=O)[C@H](Cc1ccccc1)NC(=O)[C@H](Cc1ccccc1)NC(=O)[C@H](Cc1ccccc1)NC(=O)[C@H](Cc1ccccc1)NC(=O)[C@@H](N)Cc1ccccc1 [Dimethyl bis(nonaphenylalanyl)silylester] (I: H-FFFFFFFFF / II: H-FFFFFFFFF; linker I:C-II:C via X1)
Lymphome
  Wirkung auf Lymphome: zeigen eine Wirkung

## CC[Si](CC)(OC(=O)CNC(=O)CNC(=O)CNC(=O)CNC(=O)CNC(=O)CNC(=O)CN)OC(=O)CNC(=O)CNC(=O)CNC(=O)CNC(=O)CNC(=O)CNC(=O)CN [Diethyl bis(heptaglycyl)silylester] (I: H-GGGGGGG / II: H-GGGGGGG; linker I:C-II:C via OSiEt2O)
Angiosarkome
  Wirkung gegen Angiosarkome: zeigen eine Wirkung

## CC[Si](CC)(OC(=O)[C@H](Cc1ccccc1)NC(=O)[C@H](Cc1ccccc1)NC(=O)[C@H](Cc1ccccc1)NC(=O)[C@@H](N)Cc1ccccc1)OC(=O)[C@H](Cc1ccccc1)NC(=O)[C@H](Cc1ccccc1)NC(=O)[C@H](Cc1ccccc1)NC(=O)[C@@H](N)Cc1ccccc1 [Diethyl bis(tetraphenylalnyl)silylester] (I: H-FFFF / II: H-FFFF; linker I:C-II:C via OSiEt2O)
Lymphome
  Wirkung auf Lymphome: zeigen eine Wirkung

## CC[Si](CC)(OC(=O)[C@@H](NC(=O)[C@@H](NC(=O)[C@@H](NC(=O)[C@@H](N)C(C)C)C(C)C)C(C)C)C(C)C)OC(=O)[C@@H](NC(=O)[C@@H](NC(=O)[C@@H](NC(=O)[C@@H](N)C(C)C)C(C)C)C(C)C)C(C)C [Diethyl bis(tetravalyl)silylester] (I: H-VVVV / II: H-VVVV; linker I:C-II:C via OSiEt2O)
Seminome
  Wirkung auf Seminome: zeigen eine Wirkung

## CC[Si](CC)(OC(=O)CNC(=O)CNC(=O)CNC(=O)CNC(=O)CNC(=O)CNC(=O)CNC(=O)CNC(=O)CN)OC(=O)CNC(=O)CNC(=O)CNC(=O)CNC(=O)CNC(=O)CNC(=O)CNC(=O)CNC(=O)CN [Diethyl bis(nonaglycyl)silylester]
Angiosarkome
  Wirkung gegen Angiosarkome: zeigen eine Wirkung

## CC[Si](CC)(OC(=O)CNC(=O)CNC(=O)CNC(=O)CNC(=O)CNC(=O)CNC(=O)CNC(=O)CNC(=O)CNC(=O)CN)OC(=O)CNC(=O)CNC(=O)CNC(=O)CNC(=O)CNC(=O)CNC(=O)CNC(=O)CNC(=O)CNC(=O)CN [Diethyl bis(decagtycyl)silylester]
Nephroblastome
  Wirkung auf Nephroblastome: zeigen eine Wirkung
Hepatobfastome
  Wirkung auf Hepatobfastome: zeigen eine Wirkung

## CC(C)[Si](OC(=O)CNC(=O)CNC(=O)CN)(OC(=O)CNC(=O)CNC(=O)CN)C(C)C [Diisopropyl bis(triglycyl)silylester]
Influenza-Viren
  Wirkung gegen Influenza-Viren: zeigen eine Wirkung
Plattenepithelkarzinome
  Wirkung gegen Plattenepithelkarzinome: zeigen eine Wirkung

## CC[Si](CC)(OC(=O)[C@@H](NC(=O)[C@@H](NC(=O)[C@@H](NC(=O)[C@@H](NC(=O)[C@@H](NC(=O)[C@@H](NC(=O)[C@@H](N)C(C)C)C(C)C)C(C)C)C(C)C)C(C)C)C(C)C)C(C)C)OC(=O)[C@@H](NC(=O)[C@@H](NC(=O)[C@@H](NC(=O)[C@@H](NC(=O)[C@@H](NC(=O)[C@@H](NC(=O)[C@@H](N)C(C)C)C(C)C)C(C)C)C(C)C)C(C)C)C(C)C)C(C)C [Diethyl bis(heptavalyl)silylester] (I: H-VVVVVVV / II: H-VVVVVVV; linker I:C-II:C via OSiEt2O)
Seminome
  Wirkung auf Seminome: zeigen eine Wirkung
